# “And” between values parts separate entries of the source, which are not always exact repeats. Identical values can stand only once. The list shows a part of the results. Single wells; the ratio to wells without odorant was worked out here, and repeats agree poorly.
# Columns and labels:
# Assay in all cases: odorant receptor activation (CRE luciferase / Renilla) (fold of no-odor wells); higher = more activation
# Conditions in all cases: 100 µM
# [1] = test system: OR51G1 clone 1165
# [2] = test system: OR51G2 clone 1199
# [3] = test system: OR51H1 clone 1187
# [4] = test system: OR51I2 clone 1133
# [5] = test system: OR51L1 T196I/A207V clone 1533
# [6] = test system: OR51L1 clone 1183
# [7] = test system: OR51L1 clone 1534
# [8] = test system: OR51M1 H91Q/L124F/I193T/P245H/F307L clone 1121
# [9] = test system: OR51Q1 clone 1190
# [10] = test system: OR51T1 clone 1326
# [11] = test system: OR52A1 S272P clone 1151
# [12] = test system: OR51F2 clone 1330
# [13] = test system: OR51L1 I281M clone 1535
# [14] = test system: OR51I1 clone 1555
# [15] = test system: OR51J1 R75H clone 1698
# [16] = test system: OR51S1 clone 1699
# [17] = test system: OR51V1 clone 1700
# [18] = test system: OR51V1 clone 1701
# [19] = test system: OR52A4 clone 1719
# [20] = test system: OR52A5 clone 1568
Structure (SMILES),odorant receptor activation [1],odorant receptor activation [2],odorant receptor activation [3],odorant receptor activation [4],odorant receptor activation [5],odorant receptor activation [6],odorant receptor activation [7],odorant receptor activation [8],odorant receptor activation [9],odorant receptor activation [10],odorant receptor activation [11],odorant receptor activation [12],odorant receptor activation [13],odorant receptor activation [14],odorant receptor activation [15],odorant receptor activation [16],odorant receptor activation [17],odorant receptor activation [18],odorant receptor activation [19],odorant receptor activation [20]
CC1COCc2cc3c(cc21)C(C)(C)C(C)C3(C)C (stereo unspecified) [galaxolide],0.91,0.94,0.819,0.877,1.84 and 1.67,0.762,2.69 and 3.79,0.446 and 0.976,0.891,0.806 and 1.51,0.868,–,–,–,–,–,–,–,–,–
CC(C)(C)c1ccc(CCC=O)cc1 [bourgeonal],0.615,0.654,0.674,0.889,0.568,0.663,0.71,–,0.715,0.661,0.662,0.577,0.886,–,–,–,–,–,–,–
CC(C)(O)CCCC1=CCC(C=O)CC1 (stereo unspecified) [lyral],–,–,–,–,–,–,–,1.13,–,–,–,–,–,5.88,1,1.17,1.11,0.938,1.18,1.02
CCCCCC(C)=O [2-heptanone],0.922,1.04,1.28,1.1,0.927 and 0.646,0.958,0.777 and 0.645,–,0.867,0.974,1.51,1.42,1.08 and 0.655,–,–,–,–,–,–,–
O=C1CCCCC1 [Cyclohexanone],0.743,0.596,0.87,0.765,0.912 and 1.05,0.97,0.52 and 0.865,–,0.46,0.345,0.679,0.7,0.965 and 0.818,–,–,–,–,–,–,–
C=CCc1ccc(O)c(OC)c1 [eugenol],3.06 and 1.65,1.47 and 1.32,2.62 and 1.22,–,1.39 and 0.858 and 1.71,2.12 and 1.28,0.901 and 0.697 and 1.18,1.43,1.38 and 1.64,1.1 and 1.56,2.44 and 1.06,1.56 and 1.57,1.18 and 1.06 and 1.42,1.15,1.05,0.961,0.698,1.05,1.36,1.41
COc1cc(C)ccc1O [2-methoxy-4-methylphenol],1.71,1.15,0.87,1.36,0.849,1.19,0.683,0.921,0.987,0.945,1.12,0.81,0.926,0.882,0.704,0.898,0.914,1.01,0.956,0.944
CCCCO [1-butanol],1.47,1.45,1,0.925,1.2,0.932,0.924,0.876,1.01,0.881,1.02,0.924,1.38,0.829,0.776,0.801,0.947,0.984,1.21,0.855
COC(=O)c1ccccc1 [methyl benzoate],0.814,0.771,0.923,0.879,0.901 and 1,1,0.429 and 0.743,–,0.622,0.393,0.903,0.628,1.04 and 0.907,–,–,–,–,–,–,–

# Source: the odorant receptor screen of Mainland et al. (2015)
